Laboratory results: PMC8384837
Numbering of substitutions follows the chain as printed. The list shows a part of the results. For some assays here: At the low end of the ranking the order means little.

Assays:
Details in all cases: yeast three-hybrid, YBZ-1, SC-Leu-His + 0.5 mM 3-AT, 4 days
[1] = biological target: T1, PUM1 PUF domain R2-KKG N899K + Y900K + Q903G (Homo sapiens) (UniProt Q14671)
T1 sequence: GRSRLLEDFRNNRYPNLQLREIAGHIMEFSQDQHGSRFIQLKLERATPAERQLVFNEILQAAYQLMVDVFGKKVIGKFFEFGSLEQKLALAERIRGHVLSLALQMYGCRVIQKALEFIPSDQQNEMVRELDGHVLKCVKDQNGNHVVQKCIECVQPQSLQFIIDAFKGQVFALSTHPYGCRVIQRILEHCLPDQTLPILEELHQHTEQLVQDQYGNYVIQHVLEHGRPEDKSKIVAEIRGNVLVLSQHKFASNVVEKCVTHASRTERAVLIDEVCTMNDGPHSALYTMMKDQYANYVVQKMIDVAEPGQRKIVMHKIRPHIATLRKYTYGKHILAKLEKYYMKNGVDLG

[2] = biological target: T2, PUM1 PUF domain R2-KLQ N899K + Y900L (UniProt Q14671)
T2 sequence: T1 sequence with K73L, G76Q

[3] = biological target: T3, PUM1 PUF domain R2-KLS N899K + Y900L + Q903S (Homo sapiens) (UniProt Q14671)
T3 sequence: T1 sequence with K73L, G76S

[4] = biological target: T4, PUM1 PUF domain R2-KRA N899K + Y900R + Q903A (UniProt Q14671)
T4 sequence: T1 sequence with K73R, G76A

[5] = biological target: T5, PUM1 PUF domain R2-KRG N899K + Y900R + Q903G (UniProt Q14671)
T5 sequence: T1 sequence with K73R

[6] = biological target: T6, PUM1 PUF domain R2-LFA N899L + Y900F + Q903A (Homo sapiens) (UniProt Q14671)
T6 sequence: T1 sequence with K72L, K73F, G76A

[7] = biological target: T7, PUM1 PUF domain R2-LFC N899L + Y900F + Q903C (UniProt Q14671)
T7 sequence: T1 sequence with K72L, K73F, G76C

[8] = biological target: T8, PUM1 PUF domain R2-LFG N899L + Y900F + Q903G (Homo sapiens) (UniProt Q14671)
T8 sequence: T1 sequence with K72L, K73F

[9] = biological target: T9, PUM1 PUF domain R2-LFL N899L + Y900F + Q903L (Homo sapiens) (UniProt Q14671)
T9 sequence: T1 sequence with K72L, K73F, G76L

[10] = biological target: T10, PUM1 PUF domain R2-LFS N899L + Y900F + Q903S (Homo sapiens) (UniProt Q14671)
T10 sequence: T1 sequence with K72L, K73F, G76S

[11] = biological target: T11, PUM1 PUF domain R2-LFV N899L + Y900F + Q903V (Homo sapiens) (UniProt Q14671)
T11 sequence: T1 sequence with K72L, K73F, G76V

[12] = biological target: T12, PUM1 PUF domain R2-LHR N899L + Y900H + Q903R (UniProt Q14671)
T12 sequence: T1 sequence with K72L, K73H, G76R

[13] = biological target: T13, PUM1 PUF domain R2-LIM N899L + Y900I + Q903M (UniProt Q14671)
T13 sequence: T1 sequence with K72L, K73I, G76M

[14] = biological target: T14, PUM1 PUF domain R2-LLL N899L + Y900L + Q903L (UniProt Q14671)
T14 sequence: T1 sequence with K72L, K73L, G76L

[15] = biological target: T15, PUM1 PUF domain R2-LLY N899L + Y900L + Q903Y (UniProt Q14671)
T15 sequence: T1 sequence with K72L, K73L, G76Y

[16] = biological target: T16, PUM1 PUF domain R2-LWD N899L + Y900W + Q903D (Homo sapiens) (UniProt Q14671)
T16 sequence: T1 sequence with K72L, K73W, G76D

[17] = biological target: T17, PUM1 PUF domain R2-LWF N899L + Y900W + Q903F (Homo sapiens) (UniProt Q14671)
T17 sequence: T1 sequence with K72L, K73W, G76F

[18] = biological target: T18, PUM1 PUF domain R2-LWM N899L + Y900W + Q903M (UniProt Q14671)
T18 sequence: T1 sequence with K72L, K73W, G76M

[19] = biological target: T19, PUM1 PUF domain R2-LWR N899L + Y900W + Q903R (Homo sapiens) (UniProt Q14671)
T19 sequence: T1 sequence with K72L, K73W, G76R

[20] = biological target: T20, PUM1 PUF domain R2-LWV N899L + Y900W + Q903V (Homo sapiens) (UniProt Q14671)
T20 sequence: T1 sequence with K72L, K73W, G76V

## GGCUAGAACUAGUGGAUCCCCCGGCGCCCGGCGGCUCGAGCCCGGGUAAGUGUAAAUAGUCUGCAUGCCGCCGGGCGCCAUGCCUGCAGGUCGACUCUAGAAAACAUG
[1]
  binding signal (log2 enrichment (interaction score)): -3.74
[2]
  binding signal (log2 enrichment (interaction score)): < -5.39
[3]
  binding signal (log2 enrichment (interaction score)): -2.46
[4]
  binding signal (log2 enrichment (interaction score)): < -7.68
[5]
  binding signal (log2 enrichment (interaction score)): -7.33
[6]
  binding signal (log2 enrichment (interaction score)): -0.76
[7]
  binding signal (log2 enrichment (interaction score)): < -6.07
[8]
  binding signal (log2 enrichment (interaction score)): -3.04
[9]
  binding signal (log2 enrichment (interaction score)): -6.06
[10]
  binding signal (log2 enrichment (interaction score)): -1.33
[11]
  binding signal (log2 enrichment (interaction score)): -0.86
[12]
  binding signal (log2 enrichment (interaction score)): < -6.57
[13]
  binding signal (log2 enrichment (interaction score)): < -6.71
[14]
  binding signal (log2 enrichment (interaction score)): -9.74
[15]
  binding signal (log2 enrichment (interaction score)): < -9.09
[16]
  binding signal (log2 enrichment (interaction score)): -4.57
[17]
  binding signal (log2 enrichment (interaction score)): -2.73
[18]
  binding signal (log2 enrichment (interaction score)): < -7.13
[19]
  binding signal (log2 enrichment (interaction score)): -0.83
[20]
  binding signal (log2 enrichment (interaction score)): -3.88
